Results: doi:10.1101/2020.06.15.145656
These are yes or no findings as the source states them, for the method shown. In cells and extracts the contact can be indirect. Some results given as binding are weak or reduced against the parent protein; the word gives no strength. For part of these data: Sequences can lack the tags named with a protein.

Protein sequences, listed by entry. Tags and fused reporters are not part of them. Residues count along the entry.
UniProt O75925: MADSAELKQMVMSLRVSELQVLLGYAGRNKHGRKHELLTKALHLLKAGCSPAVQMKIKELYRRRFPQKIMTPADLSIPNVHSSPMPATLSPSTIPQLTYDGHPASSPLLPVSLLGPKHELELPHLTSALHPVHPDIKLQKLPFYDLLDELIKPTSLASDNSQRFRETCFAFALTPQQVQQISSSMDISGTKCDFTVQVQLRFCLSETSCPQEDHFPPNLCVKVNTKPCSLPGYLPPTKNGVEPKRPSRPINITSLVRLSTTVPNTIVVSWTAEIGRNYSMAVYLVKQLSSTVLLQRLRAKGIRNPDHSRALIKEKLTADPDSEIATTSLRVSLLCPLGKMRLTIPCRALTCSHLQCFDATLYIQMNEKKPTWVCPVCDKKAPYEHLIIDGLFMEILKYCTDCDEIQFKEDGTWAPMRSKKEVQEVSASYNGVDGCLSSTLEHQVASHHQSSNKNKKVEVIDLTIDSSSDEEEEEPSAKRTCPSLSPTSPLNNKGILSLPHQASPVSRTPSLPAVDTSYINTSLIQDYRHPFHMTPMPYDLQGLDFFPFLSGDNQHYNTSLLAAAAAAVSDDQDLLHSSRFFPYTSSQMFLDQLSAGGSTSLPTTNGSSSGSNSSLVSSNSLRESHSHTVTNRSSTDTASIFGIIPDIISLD
UniProt O15047: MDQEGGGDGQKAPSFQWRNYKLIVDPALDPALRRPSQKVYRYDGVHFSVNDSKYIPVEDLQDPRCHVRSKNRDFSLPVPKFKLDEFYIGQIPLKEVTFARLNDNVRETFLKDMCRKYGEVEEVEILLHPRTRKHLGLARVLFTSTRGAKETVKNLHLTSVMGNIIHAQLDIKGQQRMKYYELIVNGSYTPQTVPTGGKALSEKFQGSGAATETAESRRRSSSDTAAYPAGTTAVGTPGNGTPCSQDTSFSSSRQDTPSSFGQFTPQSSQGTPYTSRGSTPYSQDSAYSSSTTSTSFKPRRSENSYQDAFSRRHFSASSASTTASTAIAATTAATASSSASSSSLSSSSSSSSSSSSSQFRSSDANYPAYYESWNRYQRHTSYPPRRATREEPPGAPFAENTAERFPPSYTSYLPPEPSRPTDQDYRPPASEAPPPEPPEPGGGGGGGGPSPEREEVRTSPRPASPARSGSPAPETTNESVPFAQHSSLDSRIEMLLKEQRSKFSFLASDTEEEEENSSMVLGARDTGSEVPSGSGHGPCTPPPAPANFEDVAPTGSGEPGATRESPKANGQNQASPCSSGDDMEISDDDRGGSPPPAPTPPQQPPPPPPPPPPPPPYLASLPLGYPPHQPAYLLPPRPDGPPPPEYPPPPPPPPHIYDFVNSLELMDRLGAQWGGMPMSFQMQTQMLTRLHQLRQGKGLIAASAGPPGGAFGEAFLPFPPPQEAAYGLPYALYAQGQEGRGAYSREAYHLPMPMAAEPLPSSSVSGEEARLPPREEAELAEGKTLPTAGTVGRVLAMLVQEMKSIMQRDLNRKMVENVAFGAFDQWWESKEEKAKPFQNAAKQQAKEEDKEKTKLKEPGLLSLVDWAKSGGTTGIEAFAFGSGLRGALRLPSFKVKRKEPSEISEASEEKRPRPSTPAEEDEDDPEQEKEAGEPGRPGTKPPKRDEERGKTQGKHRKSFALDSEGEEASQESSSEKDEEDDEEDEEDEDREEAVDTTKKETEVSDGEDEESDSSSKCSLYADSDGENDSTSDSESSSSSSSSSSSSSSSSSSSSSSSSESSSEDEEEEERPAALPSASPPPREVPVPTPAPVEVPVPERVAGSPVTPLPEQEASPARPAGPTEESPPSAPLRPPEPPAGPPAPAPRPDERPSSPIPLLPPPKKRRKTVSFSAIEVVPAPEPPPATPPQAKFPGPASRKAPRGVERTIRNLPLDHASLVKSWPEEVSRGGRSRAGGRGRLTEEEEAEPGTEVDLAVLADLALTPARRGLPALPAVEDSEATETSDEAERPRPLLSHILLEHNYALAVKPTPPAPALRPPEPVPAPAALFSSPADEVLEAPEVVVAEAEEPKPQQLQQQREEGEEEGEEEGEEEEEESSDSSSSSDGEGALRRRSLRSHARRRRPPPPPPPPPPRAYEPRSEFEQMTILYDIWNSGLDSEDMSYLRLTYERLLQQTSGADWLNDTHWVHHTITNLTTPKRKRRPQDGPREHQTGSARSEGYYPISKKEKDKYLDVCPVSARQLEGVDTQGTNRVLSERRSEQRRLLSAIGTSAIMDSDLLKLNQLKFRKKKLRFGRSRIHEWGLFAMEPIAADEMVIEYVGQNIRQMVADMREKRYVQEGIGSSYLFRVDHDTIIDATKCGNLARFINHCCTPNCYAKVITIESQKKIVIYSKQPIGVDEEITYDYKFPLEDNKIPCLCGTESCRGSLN
UniProt P63165, residues 1-97: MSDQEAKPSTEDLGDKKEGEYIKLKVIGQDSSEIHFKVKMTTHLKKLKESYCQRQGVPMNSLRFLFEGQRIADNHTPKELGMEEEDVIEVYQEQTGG

Assays:
[1] = target: T1, HMGXB4-HA (human) (UniProt Q9UGU5); assay: co-IP
T1 sequence: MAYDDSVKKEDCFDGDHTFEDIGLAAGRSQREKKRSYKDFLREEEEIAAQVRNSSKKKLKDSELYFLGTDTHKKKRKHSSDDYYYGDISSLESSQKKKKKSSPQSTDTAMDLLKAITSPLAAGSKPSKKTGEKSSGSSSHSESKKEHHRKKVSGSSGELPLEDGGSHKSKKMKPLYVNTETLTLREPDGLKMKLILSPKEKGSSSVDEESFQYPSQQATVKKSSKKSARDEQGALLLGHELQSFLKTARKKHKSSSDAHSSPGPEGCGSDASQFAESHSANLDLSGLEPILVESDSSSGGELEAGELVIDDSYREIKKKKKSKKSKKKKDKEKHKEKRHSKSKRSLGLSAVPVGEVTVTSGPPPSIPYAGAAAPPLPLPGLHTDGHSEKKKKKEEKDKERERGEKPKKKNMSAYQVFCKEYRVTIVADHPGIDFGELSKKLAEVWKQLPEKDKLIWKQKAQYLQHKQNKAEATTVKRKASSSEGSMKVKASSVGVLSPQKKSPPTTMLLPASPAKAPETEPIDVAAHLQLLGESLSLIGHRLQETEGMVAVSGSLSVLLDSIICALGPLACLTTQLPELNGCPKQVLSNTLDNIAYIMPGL

[2] = target: T2, endogenous HMGXB4 (human (endogenous in HEK293)) (UniProt Q9UGU5); assay: co-IP
T2 sequence: T1 sequence

Substance: PIAS1-FLAG (from UniProt O75925 1-651)
- binding [1]: binds

Substance: SETD1A (from UniProt O15047 1-1707) (enzyme)
- binding [2]: binds

Substance: SUMO1 (co-IP in HeLa cells, data not shown) (from UniProt P63165 1-97)
- binding [1]: binds
